From patent US20250074999A1 (PENTIXAPHARM, published 2025)
Numbering of substitutions follows the chain as printed. These are yes or no findings as the source states them, for the method shown. Some entries that bind do so weakly or less than the wild type.

T1: Tn-LYPD3-STP-ECD (NM-F9-derived LYPD3-STP-ECD digested with β-galactosidase) (human) (UniProt O95274)
T1 sequence (chain, O-glycans mainly Tn (GalNAcα1-) on Ser/Thr after β-galactosidase): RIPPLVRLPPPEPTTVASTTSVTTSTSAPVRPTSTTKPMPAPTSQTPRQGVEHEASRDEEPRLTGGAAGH

B1: 21E9-222 (antibody, V domains shown)
VH: EVQLVESGGGLVQPGGSLRLSCAASGFDFSNYYYMCWVRQAPGKGLEWVSCIAAGSGGYTYYASWAKGRFTISRDNSKNTLYLQMNSLRAEDTAVYYCASSGDYKGFNLWGQGTLVTVS
VL: DIVMTQSPSSLSASVGDRVTITCQASQSISSYLAWYQQKPGKPPKLLIYGASNLASGVPSRFSGSGSGTDFTLTISSLQPEDVATYYCQGYYYSFSDIFAFGGGTKVEI
notes: Humanized 21E9; also called humanized aLYPD3 antibody 21E9-222
B2: 21E9-219 (antibody, V domains shown)
VH: B1 VH with E1L, Q13K, V38I, S77A, T80S, Y96W
VL: B1 VL
notes: Humanized 21E9; also called humanized aLYPD3 antibody 21E9-219
B3: 21E9-220 (antibody, V domains shown)
VH: B1 VH with E1Q, V5Q, S50L, V95I
VL: B1 VL
notes: Humanized 21E9; also called humanized aLYPD3 antibody 21E9-220
B4: 21E9-221 (antibody, V domains shown)
VH: B1 VH with L115M
VL: B1 VL
notes: Humanized 21E9; also called humanized aLYPD3 antibody 21E9-221
B5: 21E9-224 (antibody, V domains shown)
VH: B1 VH
VL: B1 VL with D1E, P43A, V83F
notes: Humanized 21E9; also called humanized aLYPD3 antibody 21E9-224
B6: 21E9-225 (antibody, V domains shown)
VH: B1 VH
VL: B1 VL with D1A, V3R, M4I, T5A, V15T, P43A, S77C, P80S, V83F, G103Q
notes: Humanized 21E9; also called humanized aLYPD3 antibody 21E9-225
B7: 21E9-226 (antibody, V domains shown)
VH: B1 VH
VL: B1 VL with D1E, V107L
notes: Humanized 21E9; also called humanized aLYPD3 antibody 21E9-226
B8: 21E9-227 (antibody, V domains shown)
VH: B1 VH with E1Q, Q13K, V38I, S77A, T80S
VL: B1 VL with D1A, V3R, M4I, T5A, V15T, P43A, S77C, P80S, V83F, G103Q
notes: Humanized 21E9; also called humanized aLYPD3 antibody 21E9-227
B9: 21E9-228 (antibody, V domains shown)
VH: B1 VH with E1Q, V5Q, S50L, V95I
VL: B1 VL with D1A, V3R, M4I, T5A, V15T, P43A, S77C, P80S, V83F, G103Q
notes: Humanized 21E9; also called humanized aLYPD3 antibody 21E9-228

target: T1, Tn-LYPD3-STP-ECD (NM-F9-derived LYPD3-STP-ECD digested with β-galactosidase) (human); experiment: ELISA and flow cytometry (FIGS. 14, 15 and 16)

binding, binds:
B1
B2
B3
B4
B5
B6
B7
B8
B9
